# PubChem BioAssay AID1259308 | NCATS, 2017
# Purpose: 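Candidate targets for better recombinant protein yield in mammalian cells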 (primary screen)
# Cells: human HEK293 embryonic kidney cells stably expressing firefly luciferase (HEK-CMV-Luc2-Hygro)
# Reagent: single siRNA against human genes, 0.8 pmol siRNA per well
# Time to read-out: 72 h
# Detection: 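Luciferase light (ONE-Glo) measured on one replicate plate set and viability (CellTiter-Glo) on the other, scaled to a negative control siRNA, with robust z-scores and luciferase per cell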
# Direction: total luciferase, z-score and total luciferase, % of control: higher = more reporter protein produced; luciferase per cell, z-score: higher = more reporter output per viable cell
# Hit rule: 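Active when the median/MAD z-score for overall luciferase is greater than 3; a gene was taken forward for validation with new siRNAs if at least two of its three siRNAs passed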
# Meaning of the calls: active = raised luciferase; inactive = no rise
# Here is a random part of about 59,000 reagents tested. About 1,510 of them (2.6%) count as active. 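Calls use total luciferase alone and ignore viability, so some active siRNAs may act by altering cell number.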 The numbers tell different reagents against one gene apart. Further read-outs or replicates are left out here.
Gene,reagent no.,"total luciferase, z-score","total luciferase, % of control","luciferase per cell, z-score",Outcome
OR6C70 (GeneID 390327),1,2.86,139,2.64,inactive
OR6C70 (GeneID 390327),2,-1.81,45.9,-1.67,inactive
OR6C70 (GeneID 390327),3,-0.402,73.9,0.172,inactive
RETREG2 (GeneID 79137),1,0.584,93.5,-0.195,inactive
RETREG2 (GeneID 79137),2,0.679,95.4,0.469,inactive
RETREG2 (GeneID 79137),3,1.33,108,0.665,inactive
FGR (GeneID 2268),1,0.153,84.9,-0.259,inactive
FGR (GeneID 2268),2,-0.268,76.6,-0.132,inactive
FGR (GeneID 2268),3,-2.23,37.4,-0.965,inactive
CACNG8 (GeneID 59283),1,-1.25,56.9,-0.67,inactive
CACNG8 (GeneID 59283),2,0.0126,82.1,-0.429,inactive
CACNG8 (GeneID 59283),3,-1.67,48.6,-1.92,inactive
SPICE1 (GeneID 152185),1,0.401,89.9,0.863,inactive
SPICE1 (GeneID 152185),2,-0.476,72.4,-0.345,inactive
SPICE1 (GeneID 152185),3,-0.0895,80.1,-0.0436,inactive
OR4C46 (GeneID 119749),1,0.355,89,0.381,inactive
OR4C46 (GeneID 119749),2,0.783,97.5,0.285,inactive
OR4C46 (GeneID 119749),3,-1.66,48.9,-1.43,inactive
RHPN2 (GeneID 85415),1,-0.45,72.9,-1.32,inactive
RHPN2 (GeneID 85415),2,-0.959,62.8,-1.16,inactive
RHPN2 (GeneID 85415),3,0.64,94.6,0.397,inactive
SAXO6 (GeneID 56890),1,-1.85,45.1,-1.54,inactive
SAXO6 (GeneID 56890),2,1.17,105,0.832,inactive
SAXO6 (GeneID 56890),3,0.0462,82.8,-0.268,inactive
NECTIN4 (GeneID 81607),1,-0.255,76.8,-0.253,inactive
NECTIN4 (GeneID 81607),2,-1.31,55.8,-0.109,inactive
NECTIN4 (GeneID 81607),3,0.443,90.7,2.12,inactive
VTA1 (GeneID 51534),1,-0.841,65.2,-0.657,inactive
VTA1 (GeneID 51534),2,0.458,91,0.13,inactive
VTA1 (GeneID 51534),3,1.1,104,1.87,inactive
TSPYL4 (GeneID 23270),1,-1.09,60.2,0.301,inactive
TSPYL4 (GeneID 23270),2,0.683,95.5,0.816,inactive
TSPYL4 (GeneID 23270),3,-0.234,77.2,-0.258,inactive
PKP3 (GeneID 11187),1,-1.02,61.6,-0.338,inactive
PKP3 (GeneID 11187),2,0.507,92,-0.00459,inactive
PKP3 (GeneID 11187),3,-0.262,76.7,-0.456,inactive
INTS9 (GeneID 55756),1,1.25,107,2.13,inactive
INTS9 (GeneID 55756),2,0.142,84.7,0.826,inactive
INTS9 (GeneID 55756),3,1.68,115,1.12,inactive

Reformatted: entries from further up.
Gene	reagent no.	total luciferase, z-score	total luciferase, % of control	luciferase per cell, z-score	Outcome
SPICE1 (GeneID 152185)	3	-0.0895	80.1	-0.0436	inactive
OR4C46 (GeneID 119749)	1	0.355	89	0.381	inactive
OR4C46 (GeneID 119749)	2	0.783	97.5	0.285	inactive
OR4C46 (GeneID 119749)	3	-1.66	48.9	-1.43	inactive
